From the supplement of paper PMC10849652 come the findings set out here.

Sequences of proteins named here, by UniProt entry; tags and fusion partners are left off. A change or cut given only in a name is not applied to a line headed by its entry.
UniProt Q9NRX1: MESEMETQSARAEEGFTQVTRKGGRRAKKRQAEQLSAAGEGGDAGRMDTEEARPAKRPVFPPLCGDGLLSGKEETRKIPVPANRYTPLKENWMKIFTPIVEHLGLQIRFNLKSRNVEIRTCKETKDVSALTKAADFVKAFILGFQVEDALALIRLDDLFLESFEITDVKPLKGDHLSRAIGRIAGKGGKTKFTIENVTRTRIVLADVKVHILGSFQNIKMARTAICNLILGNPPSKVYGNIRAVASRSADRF
UniProt O95602, whole entry, looked up: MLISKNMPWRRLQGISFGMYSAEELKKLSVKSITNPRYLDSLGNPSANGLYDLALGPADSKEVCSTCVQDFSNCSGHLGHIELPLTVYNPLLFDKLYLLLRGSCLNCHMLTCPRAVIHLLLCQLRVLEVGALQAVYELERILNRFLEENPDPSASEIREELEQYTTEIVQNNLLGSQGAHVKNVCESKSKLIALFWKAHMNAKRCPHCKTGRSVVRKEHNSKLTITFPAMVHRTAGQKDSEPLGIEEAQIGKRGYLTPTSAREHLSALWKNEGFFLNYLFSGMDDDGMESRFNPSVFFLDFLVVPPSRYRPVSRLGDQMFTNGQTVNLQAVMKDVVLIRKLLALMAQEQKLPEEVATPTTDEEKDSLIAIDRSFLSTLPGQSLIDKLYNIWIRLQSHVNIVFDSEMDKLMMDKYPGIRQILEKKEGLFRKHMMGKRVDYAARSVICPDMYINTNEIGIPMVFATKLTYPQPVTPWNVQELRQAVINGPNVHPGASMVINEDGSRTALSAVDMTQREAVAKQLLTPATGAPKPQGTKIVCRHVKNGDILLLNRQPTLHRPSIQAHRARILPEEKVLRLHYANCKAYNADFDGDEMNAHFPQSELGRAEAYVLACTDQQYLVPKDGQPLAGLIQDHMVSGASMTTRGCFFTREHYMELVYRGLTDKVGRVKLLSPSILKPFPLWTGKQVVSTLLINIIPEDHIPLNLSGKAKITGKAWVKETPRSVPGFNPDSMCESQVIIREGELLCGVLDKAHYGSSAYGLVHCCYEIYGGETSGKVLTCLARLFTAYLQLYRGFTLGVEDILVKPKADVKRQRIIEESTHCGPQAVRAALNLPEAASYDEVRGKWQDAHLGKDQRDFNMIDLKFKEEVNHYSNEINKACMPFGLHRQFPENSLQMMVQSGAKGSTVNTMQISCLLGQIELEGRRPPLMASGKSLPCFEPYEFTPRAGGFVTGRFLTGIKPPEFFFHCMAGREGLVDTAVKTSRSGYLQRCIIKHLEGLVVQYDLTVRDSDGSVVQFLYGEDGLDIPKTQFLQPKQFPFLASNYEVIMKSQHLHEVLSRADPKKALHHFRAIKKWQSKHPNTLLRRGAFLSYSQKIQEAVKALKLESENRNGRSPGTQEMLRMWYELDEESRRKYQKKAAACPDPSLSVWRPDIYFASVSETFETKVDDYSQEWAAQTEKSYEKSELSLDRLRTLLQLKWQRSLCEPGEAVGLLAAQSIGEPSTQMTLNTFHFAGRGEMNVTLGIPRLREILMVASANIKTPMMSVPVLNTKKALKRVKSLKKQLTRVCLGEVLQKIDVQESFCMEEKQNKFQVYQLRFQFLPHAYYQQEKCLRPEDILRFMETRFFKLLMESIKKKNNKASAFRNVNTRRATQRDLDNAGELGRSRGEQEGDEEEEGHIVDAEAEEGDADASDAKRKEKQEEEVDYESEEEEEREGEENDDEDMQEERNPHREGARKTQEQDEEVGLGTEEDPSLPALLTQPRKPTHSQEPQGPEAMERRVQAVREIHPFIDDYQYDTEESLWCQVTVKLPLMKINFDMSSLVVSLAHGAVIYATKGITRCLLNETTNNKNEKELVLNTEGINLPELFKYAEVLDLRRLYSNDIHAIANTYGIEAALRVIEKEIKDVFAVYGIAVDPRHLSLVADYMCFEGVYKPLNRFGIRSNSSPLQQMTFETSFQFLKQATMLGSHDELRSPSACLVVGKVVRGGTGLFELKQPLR
UniProt Q9H8W4: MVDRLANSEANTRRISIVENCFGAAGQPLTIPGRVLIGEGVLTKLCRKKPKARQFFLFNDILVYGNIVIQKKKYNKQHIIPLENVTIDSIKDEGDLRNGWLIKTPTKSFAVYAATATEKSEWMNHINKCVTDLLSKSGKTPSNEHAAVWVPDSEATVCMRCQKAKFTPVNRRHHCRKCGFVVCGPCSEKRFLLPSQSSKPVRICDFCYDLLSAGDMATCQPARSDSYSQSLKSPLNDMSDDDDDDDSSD
UniProt P53350, whole entry, looked up: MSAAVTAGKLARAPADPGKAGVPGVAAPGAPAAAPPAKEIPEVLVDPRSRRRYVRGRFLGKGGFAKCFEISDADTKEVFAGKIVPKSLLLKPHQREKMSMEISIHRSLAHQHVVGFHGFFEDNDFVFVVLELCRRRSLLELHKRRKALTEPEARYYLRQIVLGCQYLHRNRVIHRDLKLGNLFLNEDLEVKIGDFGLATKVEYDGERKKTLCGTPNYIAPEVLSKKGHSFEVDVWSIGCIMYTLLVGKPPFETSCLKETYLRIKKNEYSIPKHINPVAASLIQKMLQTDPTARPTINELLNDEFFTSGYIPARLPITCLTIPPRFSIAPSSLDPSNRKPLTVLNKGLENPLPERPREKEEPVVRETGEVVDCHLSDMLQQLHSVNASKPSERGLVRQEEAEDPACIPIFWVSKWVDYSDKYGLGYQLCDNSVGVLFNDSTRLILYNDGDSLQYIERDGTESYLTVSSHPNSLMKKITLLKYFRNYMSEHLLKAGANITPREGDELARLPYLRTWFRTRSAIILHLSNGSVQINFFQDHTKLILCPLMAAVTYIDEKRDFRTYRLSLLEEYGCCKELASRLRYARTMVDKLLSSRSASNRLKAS
UniProt P13797: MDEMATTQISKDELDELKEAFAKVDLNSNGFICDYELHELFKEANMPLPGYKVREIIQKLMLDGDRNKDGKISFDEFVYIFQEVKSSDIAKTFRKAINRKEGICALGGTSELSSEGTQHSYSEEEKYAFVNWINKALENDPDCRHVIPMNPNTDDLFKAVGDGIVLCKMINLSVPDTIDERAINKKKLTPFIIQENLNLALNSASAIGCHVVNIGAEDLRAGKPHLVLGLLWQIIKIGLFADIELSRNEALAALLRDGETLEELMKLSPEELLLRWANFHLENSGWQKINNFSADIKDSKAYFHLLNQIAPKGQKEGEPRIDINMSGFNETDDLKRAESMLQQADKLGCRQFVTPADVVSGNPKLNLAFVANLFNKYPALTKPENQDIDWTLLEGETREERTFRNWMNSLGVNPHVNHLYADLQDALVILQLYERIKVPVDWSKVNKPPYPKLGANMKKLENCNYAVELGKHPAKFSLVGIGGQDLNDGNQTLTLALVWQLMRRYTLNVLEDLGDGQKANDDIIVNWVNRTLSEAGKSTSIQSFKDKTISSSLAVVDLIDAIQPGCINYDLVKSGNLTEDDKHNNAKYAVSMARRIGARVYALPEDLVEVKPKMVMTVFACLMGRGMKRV
UniProt Q9UNP9: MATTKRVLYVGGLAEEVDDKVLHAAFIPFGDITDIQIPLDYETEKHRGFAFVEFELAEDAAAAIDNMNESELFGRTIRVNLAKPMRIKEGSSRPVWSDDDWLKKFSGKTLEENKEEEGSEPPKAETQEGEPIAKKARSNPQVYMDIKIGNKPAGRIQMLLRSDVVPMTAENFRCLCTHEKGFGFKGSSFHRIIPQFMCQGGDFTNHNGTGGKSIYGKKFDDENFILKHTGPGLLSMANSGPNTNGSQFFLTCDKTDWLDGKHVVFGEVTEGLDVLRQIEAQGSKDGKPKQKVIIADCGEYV
UniProt O43447: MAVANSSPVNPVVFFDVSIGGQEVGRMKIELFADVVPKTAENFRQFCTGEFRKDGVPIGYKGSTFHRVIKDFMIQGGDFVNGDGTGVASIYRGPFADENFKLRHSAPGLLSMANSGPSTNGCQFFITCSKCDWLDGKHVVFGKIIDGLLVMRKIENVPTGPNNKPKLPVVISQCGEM
UniProt Q08752, whole entry, looked up: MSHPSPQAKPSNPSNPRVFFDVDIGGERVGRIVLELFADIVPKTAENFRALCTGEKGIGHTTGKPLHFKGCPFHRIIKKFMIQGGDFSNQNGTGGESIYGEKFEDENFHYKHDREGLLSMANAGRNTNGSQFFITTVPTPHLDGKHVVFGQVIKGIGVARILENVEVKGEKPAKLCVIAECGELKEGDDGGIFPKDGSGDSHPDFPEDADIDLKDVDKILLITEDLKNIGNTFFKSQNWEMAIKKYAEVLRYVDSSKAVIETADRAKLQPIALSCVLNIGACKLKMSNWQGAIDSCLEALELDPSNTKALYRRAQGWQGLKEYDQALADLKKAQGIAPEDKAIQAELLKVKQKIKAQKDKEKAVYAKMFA
UniProt Q9Y3C6: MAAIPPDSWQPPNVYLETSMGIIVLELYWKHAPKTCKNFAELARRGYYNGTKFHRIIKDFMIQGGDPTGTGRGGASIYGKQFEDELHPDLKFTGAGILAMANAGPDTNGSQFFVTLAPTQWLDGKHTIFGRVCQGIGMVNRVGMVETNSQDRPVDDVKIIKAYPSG
UniProt O75334: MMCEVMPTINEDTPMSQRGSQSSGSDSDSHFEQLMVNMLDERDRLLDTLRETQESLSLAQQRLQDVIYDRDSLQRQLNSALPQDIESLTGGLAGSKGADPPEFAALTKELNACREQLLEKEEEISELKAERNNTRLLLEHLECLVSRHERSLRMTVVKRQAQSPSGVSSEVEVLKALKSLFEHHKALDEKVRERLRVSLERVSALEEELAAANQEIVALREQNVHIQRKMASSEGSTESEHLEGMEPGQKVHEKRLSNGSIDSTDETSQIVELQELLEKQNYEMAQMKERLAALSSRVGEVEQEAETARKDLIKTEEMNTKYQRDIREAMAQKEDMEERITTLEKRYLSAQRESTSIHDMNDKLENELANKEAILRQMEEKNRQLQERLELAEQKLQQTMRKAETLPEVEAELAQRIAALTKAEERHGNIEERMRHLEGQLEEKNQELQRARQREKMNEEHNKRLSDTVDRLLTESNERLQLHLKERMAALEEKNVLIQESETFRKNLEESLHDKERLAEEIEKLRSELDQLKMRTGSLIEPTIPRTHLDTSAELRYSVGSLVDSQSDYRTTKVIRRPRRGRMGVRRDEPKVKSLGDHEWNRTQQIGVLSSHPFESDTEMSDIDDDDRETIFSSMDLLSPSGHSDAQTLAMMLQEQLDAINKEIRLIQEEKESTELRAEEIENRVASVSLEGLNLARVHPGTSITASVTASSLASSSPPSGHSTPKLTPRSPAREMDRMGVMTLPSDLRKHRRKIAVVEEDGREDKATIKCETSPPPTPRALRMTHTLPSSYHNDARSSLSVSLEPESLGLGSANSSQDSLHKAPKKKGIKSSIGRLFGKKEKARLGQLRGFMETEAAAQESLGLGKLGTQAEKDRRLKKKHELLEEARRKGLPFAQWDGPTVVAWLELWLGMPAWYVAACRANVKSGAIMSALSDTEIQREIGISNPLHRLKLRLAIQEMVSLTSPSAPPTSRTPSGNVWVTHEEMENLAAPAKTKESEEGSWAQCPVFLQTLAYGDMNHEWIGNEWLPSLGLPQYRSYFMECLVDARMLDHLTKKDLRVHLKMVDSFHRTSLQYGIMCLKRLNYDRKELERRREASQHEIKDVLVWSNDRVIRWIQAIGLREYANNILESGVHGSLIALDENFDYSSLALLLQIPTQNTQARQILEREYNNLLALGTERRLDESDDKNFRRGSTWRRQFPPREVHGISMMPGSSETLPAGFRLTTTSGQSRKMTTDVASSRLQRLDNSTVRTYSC
UniProt Q9Y535: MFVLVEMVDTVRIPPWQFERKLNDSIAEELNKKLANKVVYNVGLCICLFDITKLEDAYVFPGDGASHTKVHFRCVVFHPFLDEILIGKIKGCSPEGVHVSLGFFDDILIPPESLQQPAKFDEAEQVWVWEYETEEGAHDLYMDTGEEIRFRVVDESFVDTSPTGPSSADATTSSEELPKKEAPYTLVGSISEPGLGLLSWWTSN
UniProt O15305: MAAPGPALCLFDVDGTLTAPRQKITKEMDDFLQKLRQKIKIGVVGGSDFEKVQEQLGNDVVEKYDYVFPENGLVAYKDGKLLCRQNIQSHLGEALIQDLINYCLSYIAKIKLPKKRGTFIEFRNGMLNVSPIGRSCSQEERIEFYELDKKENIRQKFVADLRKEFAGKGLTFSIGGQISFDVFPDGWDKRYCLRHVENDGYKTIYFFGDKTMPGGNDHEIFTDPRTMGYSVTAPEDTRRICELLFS
UniProt P30405: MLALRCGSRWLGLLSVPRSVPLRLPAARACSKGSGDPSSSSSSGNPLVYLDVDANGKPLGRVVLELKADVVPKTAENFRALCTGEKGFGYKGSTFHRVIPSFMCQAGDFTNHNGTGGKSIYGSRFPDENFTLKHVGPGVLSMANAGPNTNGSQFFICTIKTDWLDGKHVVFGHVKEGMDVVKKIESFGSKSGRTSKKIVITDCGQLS
UniProt Q6P1K2: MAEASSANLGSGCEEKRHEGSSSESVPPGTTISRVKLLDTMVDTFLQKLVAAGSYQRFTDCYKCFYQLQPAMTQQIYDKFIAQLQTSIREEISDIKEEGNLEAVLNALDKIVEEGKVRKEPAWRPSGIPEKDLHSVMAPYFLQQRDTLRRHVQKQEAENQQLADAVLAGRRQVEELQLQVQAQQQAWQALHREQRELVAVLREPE

This is one part of the list.

Compound in the first test: CC1=NC(=CC=C1)C2=C(N=C(N2)C(C)(C)C)C3=CC4=NC=CN=C4C=C3
The test can be described thus: log2 fold change, soluble protein after heating vs DMSO (PISA); higher = thermal stabilisation; K562 cells, 10 uM, 30 min; active = over 0.2 and 3.5 SD of the protein, either way, in both replicates (recomputed). In a few lines:
(§1)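 Soluble protein was quantified by TMTpro 16plex LC-MS/MS after channel sums were equalised. It was obtained as the supernatant after 21,000xg for 90 min from pooled aliquots of K562 cells (2×10^6 cells/mL, 10 μM compound, 30 min) heated for 3 min across 48°C-58°C and extracted in PBS with 0.5% NP-40 at 4°C. Thermal stability values are relative to control samples and come from duplicates. They are given as log2 fold changes.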
POLR2A (UniProt P24928): the log2 fold change was inactive: 0.018.
Regarding POLR2K (UniProt P53803), the log2 fold change was inactive: 0.024.
Same read-out and setting: next, POLR2F (UniProt P61218): inactive: 0.058; PLSCR1 (UniProt O15162): inactive: -0.002.
Still for that read-out and setting: next, PNO1 (UniProt Q9NRX1): inactive: -0.035; POLR1A (UniProt O95602): inactive: -0.185.
On to PLOD1 isoform 2 (UniProt Q02809), for which the log2 fold change was inactive: -0.11.
As to PPCS (UniProt Q9HAB8), the log2 fold change is inactive: 0.
As to POLR3G (UniProt O15318), the log2 fold change is inactive: -0.053.
As for POFUT1 (UniProt Q9H488), the log2 fold change was inactive: -0.003.
On the same count and under the same terms, under PLXNA1 (UniProt Q9UIW2) stands inactive: 0.001; under POLR2I (UniProt P36954), inactive: 0.001.
PLEKHF2 (UniProt Q9H8W4): the log2 fold change is inactive: 0.075.
The same measure, in the same setting: under PLK1 (UniProt P53350) stands inactive: -0.012; under PODXL2 (UniProt Q9NZ53), inactive: -0.06; under PLS3 (UniProt P13797), inactive: -0.038.
Regarding POTEI (UniProt P0CG38), the log2 fold change is inactive: 0.052.
Consider PPIE (UniProt Q9UNP9), for which the log2 fold change is inactive: -0.025.
As to PPIH (UniProt O43447), the log2 fold change is inactive: 0.077.
The same measure, in the same setting: next, POSTN (UniProt Q15063): inactive: 0.163; PPID (UniProt Q08752): inactive: 0.005; PNPLA2 (UniProt Q96AD5): inactive: 0.008.
The same measure, in the same setting: next, PPIL1 (UniProt Q9Y3C6): inactive: -0.024.
On the same count and under the same terms, next, PPFIA2 (UniProt O75334): inactive: -0.04; PPM1A isoform 3 (UniProt P35813): inactive: -0.035; POLR3H (UniProt Q9Y535): inactive: -0.032.
PMM2 (UniProt O15305): the log2 fold change is inactive: -0.009.
The same measure, in the same setting: next, PPIF (UniProt P30405): inactive: -0.097.
On the same count and under the same terms, next, PLPBP (UniProt O94903): inactive: 0.044; PMF1 (UniProt Q6P1K2): inactive: 0.087; POLR3C (UniProt Q9BUI4): inactive: -0.012.
On the same count and under the same terms, next, POTEF (UniProt A5A3E0): inactive: 0.

Compound in a further test: CCCCN(Cc1ccc(C(=O)NO)cc1)C(=O)Nc1ccccc1 [Nexturastat A]
The test is described as above. The method in brief:
as §1
In the case of POLR2A (UniProt P24928), the log2 fold change is inactive: 0.001.
As for POLR2K (UniProt P53803), the log2 fold change is inactive: -0.162.
As to POLR2F (UniProt P61218), the log2 fold change was inactive: -0.077.
The same measure, in the same setting: under PLSCR1 (UniProt O15162) stands inactive: 0.008; under PNO1 (UniProt Q9NRX1), inactive: 0.202; under POLR1A (UniProt O95602), active: 0.489.
On the same count and under the same terms, under PLOD1 isoform 2 (UniProt Q02809) stands inactive: 0.116; under PPCS (UniProt Q9HAB8), inactive: -0.077; under POLR3G (UniProt O15318), inactive: 0.012.
On the same count and under the same terms, under POFUT1 (UniProt Q9H488) stands inactive: -0.013; under PLXNA1 (UniProt Q9UIW2), inactive: -0.089; under POLR2I (UniProt P36954), inactive: 0.055.
On to PLEKHF2 (UniProt Q9H8W4), for which the log2 fold change is inactive: -0.017.
The same measure, in the same setting: under PLK1 (UniProt P53350) stands inactive: 0.003; under PODXL2 (UniProt Q9NZ53), inactive: 0.
With PLS3 (UniProt P13797), the log2 fold change was inactive: -0.054.
On the same count and under the same terms, under POTEI (UniProt P0CG38) stands inactive: -0.071; under PPIE (UniProt Q9UNP9), inactive: 0.024; under PPIH (UniProt O43447), inactive: 0.
In the case of POSTN (UniProt Q15063), the log2 fold change is inactive: -0.002.
On the same count and under the same terms, next, PPID (UniProt Q08752): inactive: 0.008; PNPLA2 (UniProt Q96AD5): inactive: -0.021.
Consider PPIL1 (UniProt Q9Y3C6), for which the log2 fold change is inactive: 0.025.
Still for that read-out and setting: under PPFIA2 (UniProt O75334) stands inactive: 0.058; under PPM1A isoform 3 (UniProt P35813), inactive: -0.019.
Same read-out and setting: next, POLR3H (UniProt Q9Y535): inactive: -0.101; PMM2 (UniProt O15305): inactive: -0.124.
On the same count and under the same terms, next, PPIF (UniProt P30405): inactive: 0.001; PLPBP (UniProt O94903): inactive: 0.007; PMF1 (UniProt Q6P1K2): inactive: 0.041.
As to POLR3C (UniProt Q9BUI4), the log2 fold change was inactive: -0.013.
For POTEF (UniProt A5A3E0), the log2 fold change is inactive: -0.008.
